{"source": "patent US10457891B2", "about": "“Organic compounds” (Givaudan, S.A., priority 2013, dated 2019)"}
{"test": "Odour description of the compound", "settings": "odour description of neat compound"}
{"molecule": "CCC(C)(C)c1ccc(CCC=O)c(C)c1", "note": "[Example 6, 3-(2-Methyl-4-(tert-pentyl)phenyl)propanal]", "Odor": "floral, green, weak"}
{"molecule": "Cc1cc(CC(C)C)ccc1CC(C)C=O", "note": "(centres unmarked) [Example 3, 3-(4-Isobutyl-2-methylphenyl)-2-methylpropanal]", "Odor": "fatty, watery, floral, green, aldehydic"}
{"molecule": "Cc1cc(CC(C)C)ccc1CCC=O", "note": "[Example 1, 3-(4-isobutyl-2-methylphenyl)propanal]", "Odor": "floral, aldehydic, green, Lilial, watery"}
{"molecule": "Cc1cc(CC(C)C)cc(C)c1CCC=O", "note": "[Example 2, 3-(4-Isobutyl-2,6-dimethylphenyl)propanal]", "Odor": "floral, aldehydic, fruity, slightly rosy"}
{"molecule": "Cc1cc(CC(C)C)ccc1C(C)CC=O", "note": "(centres unmarked) [Example 4, 3-(4-Isobutyl-2-methylphenyl)butanal]", "Odor": "floral, green, watery, fatty"}
{"molecule": "Cc1ccc(CC(C)C)cc1CCC=O", "note": "[Example 12, 3-(5-Isobutyl-2-methylphenyl)propanal]", "Odor": "aldehydic, floral, pungent"}
{"molecule": "Cc1cc(CCC(C)C)ccc1CCC=O", "note": "[Example 7, 3-(4-Isopentyl-2-methylphenyl)propanal]", "Odor": "aldehydic, floral, green, watery"}
{"molecule": "Cc1ccc(CCCC(C)C)cc1CC(C)C=O", "note": "(centres unmarked) [Example 16, 2-Methyl-3-(2-methyl-5-(4-methylpentyl)phenyl)propanal]", "Odor": "watery, aldehydic, metallic, sharp, citrus, mandarin"}
{"molecule": "Cc1ccc(CCCC(C)C)cc1C(C)CC=O", "note": "(centres unmarked) [Example 17, 3-(2-Methyl-5-(4-methylpentyl)phenyl)butanal]", "Odor": "weak, green, watery, floral"}
{"molecule": "CC(C)Cc1ccc2c(c1)CC(C=O)C2", "note": "(centres unmarked) [Example 9, 5-Isobutyl-2,3-dihydro-1H-indene-2-carbaldehyde]", "Odor": "aldehydic, marine, watery, floral"}
{"molecule": "Cc1ccc(CCC(C)C)cc1CCC=O", "note": "[Example 13, 3-(5-Isopentyl-2-methylphenyl)propanal]", "Odor": "floral, aldehydic, watery, metallic"}
{"molecule": "Cc1ccc(CCCC(C)C)cc1CCC=O", "note": "[Example 11, 3-(2-Methyl-5-(4-methylpentyl)phenyl)propanal]", "Odor": "green, anisic, aldehydic, fatty"}
{"molecule": "Cc1ccc(CC(C)C)cc1CC(C)C=O", "note": "(centres unmarked) [Example 15, 3-(5-Isobutyl-2-methylphenyl)-2-methylpropanal]", "Odor": "green, fatty, aldehydic, bisabolene-like"}
{"molecule": "Cc1ccc(CCC(C)C)cc1CC(C)C=O", "note": "(centres unmarked) [Example 14, 3-(5-Isopentyl-2-methylphenyl)-2-methylpropanal]", "Odor": "watery, aldehydic"}
{"molecule": "CCC(C)c1ccc(CCC=O)c(C)c1", "note": "(centres unmarked) [Example 5, 3-(4-(sec-Butyl)-2-methylphenyl)propanal]", "Odor": "green, floral, marine, Lilial-like"}
{"molecule": "Cc1cc(CCCC(C)C)ccc1CCC=O", "note": "[Example 10, 3-(2-Methyl-4-(4-methylpentyl)phenyl)propanal]", "Odor": "floral, green, watery"}
{"molecule": "Cc1ccc(C(C)C)cc1C(C)CC=O", "note": "(centres unmarked) [Example 8, 3-(5-Isopropyl-2-methylphenyl)butanal]", "Odor": "floral fruity, slightly rosy, slightly green"}
